Source: patent publication US20180362935A1, “A renal cell line with stable transporter expression” (Stichting Katholieke Universiteit, priority 2015, published 2018)

Key:
S2-OAT3 = S2-OAT3 (Homo sapiens, UniProt Q8TCC7); conditions: read-out: IC50 (literature); substrate estrone sulfate, S2-OAT3, References 52, 54; cited from earlier work
S2-OAT1 = target: T1, S2-OAT1 (Homo sapiens, UniProt Q4U2R8); conditions: substrate PAH, S2-OAT1, References 49, 52, 34, 54; read-out: IC50 (literature); cited from earlier work
T1 construct: host or cells: S2 cells
T1 sequence (Q4U2R8 1-563): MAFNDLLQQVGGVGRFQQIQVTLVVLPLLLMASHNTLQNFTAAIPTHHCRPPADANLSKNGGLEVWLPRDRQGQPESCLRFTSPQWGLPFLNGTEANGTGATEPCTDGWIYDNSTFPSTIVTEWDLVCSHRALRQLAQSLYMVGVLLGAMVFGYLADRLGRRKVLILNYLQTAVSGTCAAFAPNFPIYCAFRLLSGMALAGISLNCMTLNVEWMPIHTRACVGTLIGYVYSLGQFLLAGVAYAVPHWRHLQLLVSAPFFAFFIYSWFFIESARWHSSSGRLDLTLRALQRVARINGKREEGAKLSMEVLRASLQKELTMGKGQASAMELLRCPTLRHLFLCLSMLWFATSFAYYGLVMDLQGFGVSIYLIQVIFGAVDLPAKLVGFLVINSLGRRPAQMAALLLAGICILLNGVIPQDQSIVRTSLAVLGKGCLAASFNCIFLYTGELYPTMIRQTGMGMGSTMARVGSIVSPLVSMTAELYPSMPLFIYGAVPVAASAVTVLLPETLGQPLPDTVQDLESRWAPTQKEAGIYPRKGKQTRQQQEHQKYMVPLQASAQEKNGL

OAT3 = target: T2, OAT3 (Homo sapiens, UniProt Q8TCC7)
T2 sequence (Q8TCC7 1-542): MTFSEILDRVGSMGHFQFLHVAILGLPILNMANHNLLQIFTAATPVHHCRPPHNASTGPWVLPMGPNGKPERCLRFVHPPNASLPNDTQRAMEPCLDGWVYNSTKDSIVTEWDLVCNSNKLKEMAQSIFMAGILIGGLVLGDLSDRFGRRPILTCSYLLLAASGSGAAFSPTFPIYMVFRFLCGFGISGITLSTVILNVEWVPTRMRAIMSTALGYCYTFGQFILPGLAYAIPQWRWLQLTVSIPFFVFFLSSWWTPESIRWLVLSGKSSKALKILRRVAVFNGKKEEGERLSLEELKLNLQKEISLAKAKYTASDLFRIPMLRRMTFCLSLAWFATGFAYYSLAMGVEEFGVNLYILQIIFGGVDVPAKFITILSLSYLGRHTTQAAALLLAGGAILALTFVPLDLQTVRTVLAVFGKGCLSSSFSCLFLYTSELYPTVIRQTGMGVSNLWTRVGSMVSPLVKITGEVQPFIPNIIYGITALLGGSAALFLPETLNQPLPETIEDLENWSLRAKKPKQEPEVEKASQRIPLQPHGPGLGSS

CHO-OAT3 = target: T3, CHO-OAT3 (Homo sapiens, UniProt Q8TCC7); conditions: substrate Sitagliptin, CHO-OAT3, Reference 51; read-out: IC50 (literature); cited from earlier work
T3 construct: host or cells: CHO
T3 sequence (Q8TCC7 1-542): T2 sequence (Q8TCC7 1-542)

OAT1 = target: T4, OAT1 (Homo sapiens, UniProt Q4U2R8)
T4 sequence (Q4U2R8 1-550 isoform Q4U2R8-2): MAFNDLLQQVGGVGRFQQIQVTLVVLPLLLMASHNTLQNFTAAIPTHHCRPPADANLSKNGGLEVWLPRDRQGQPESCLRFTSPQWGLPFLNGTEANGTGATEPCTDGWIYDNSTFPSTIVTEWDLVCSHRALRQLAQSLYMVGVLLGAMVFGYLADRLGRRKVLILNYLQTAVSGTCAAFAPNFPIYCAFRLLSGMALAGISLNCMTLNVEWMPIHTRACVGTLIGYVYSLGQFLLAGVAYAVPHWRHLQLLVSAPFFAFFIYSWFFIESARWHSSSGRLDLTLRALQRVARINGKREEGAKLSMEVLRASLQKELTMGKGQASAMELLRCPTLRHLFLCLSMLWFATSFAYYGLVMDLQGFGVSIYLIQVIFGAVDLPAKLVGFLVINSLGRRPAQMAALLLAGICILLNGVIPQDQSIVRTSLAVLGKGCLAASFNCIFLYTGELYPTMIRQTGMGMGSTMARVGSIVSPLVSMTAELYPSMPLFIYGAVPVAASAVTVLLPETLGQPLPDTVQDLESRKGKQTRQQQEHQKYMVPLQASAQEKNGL

- IC50 (OAT3): 2.3 ± 0.4 µM
- IC50 (OAT1): 25 ± 4 µM
Compound: NS(=O)(=O)c1cc(C(=O)O)c(NCc2ccco2)cc1Cl [Furosemide]
- IC50 (S2-OAT3): 17.3 µM
- IC50 (S2-OAT1): 18 µM
- IC50 (CHO-OAT3): 1.7 µM
